Experimental data taken from publication doi:10.1101/2020.04.03.024018.
These are yes or no findings as the source states them, for the method shown. Some binding calls cover weakened binding; strength is not graded here.

By UniProt entry, the sequences of proteins in these tests, tags left out. Where a name states a change or a piece, a line headed by the entry shows the natural chain unless it says otherwise. Residues count along the entry.
UniProt P21730, whole entry, looked up, stated change not applied: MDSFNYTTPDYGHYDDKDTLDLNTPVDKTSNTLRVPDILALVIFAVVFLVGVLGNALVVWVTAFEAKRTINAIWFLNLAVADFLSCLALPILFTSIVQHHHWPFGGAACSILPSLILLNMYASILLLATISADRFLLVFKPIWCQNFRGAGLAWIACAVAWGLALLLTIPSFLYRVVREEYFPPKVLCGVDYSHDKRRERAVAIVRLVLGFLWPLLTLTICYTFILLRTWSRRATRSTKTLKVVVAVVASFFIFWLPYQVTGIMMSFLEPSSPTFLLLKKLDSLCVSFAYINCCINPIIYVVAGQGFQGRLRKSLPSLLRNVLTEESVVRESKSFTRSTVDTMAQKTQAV
UniProt P01031, 678-751: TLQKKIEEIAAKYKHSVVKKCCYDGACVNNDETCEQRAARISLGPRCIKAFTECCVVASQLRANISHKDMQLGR

What was measured:
[1] = biological target: C5aR D282A mutant (human) (UniProt P21730); assay: single-molecule force spectroscopy
[2] = biological target: C5aRΔTyr mutant (Y11F and Y14F) (human) (UniProt P21730); assay: single-molecule force spectroscopy

In the case of “complement C5a anaphylatoxin (from UniProt P01031 678-751) (ligand)”, the binding [1] is reported as “binds weakly” and the binding [2] is reported as “binds weakly”.
